PubChem BioAssay AID504793 | Drosophila RNAi Screening Center | 2011
The screen tested about 23,000 reagents; below is a random part of those with a known target gene and a result. In the full data, 62 (0.27%) are marked active. 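Calls come from follow-up tests whose scores are not deposited, so confirmed genes may have low counts here; counts are not normalised per plate.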 Raw values vary from plate to plate and are shown uncorrected. A plus sign joins genes that one reagent is predicted to hit. No sequences are given here.

Assay: 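Genes required for cells to halt at G2/M after double-strand DNA breaks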 (primary screen)
System: Drosophila S2R+ cells
Reagent: long dsRNA against Drosophila genes, about 0.25 µg dsRNA per well
Timing: 4 days of dsRNA, then 4 hours of drug before read-out
Treatment: doxorubicin 0.5 µM for 4 hours to cause double-strand breaks, in cells also given a low, harmless dose of dsRNA against nbs to sensitise the assay
Detection: 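Mitotic index as the number of phospho-histone H3-positive cells in each well following doxorubicin, given as raw counts without normalisation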
Direction: mitotic cells: higher = more cells in mitosis, weaker G2 arrest
Hit rule: 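Genes are called active only when high mitotic counts were reproduced with independent dsRNAs and mitosis was checked for delay without damage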
Calls: active = confirmed in follow-up tests; inactive = not confirmed

no.	gene	amplicon	mitotic cells, replicate 1	activity call
1	CG13454	DRSC10001	7	inactive
2	Npc2a	DRSC00698	6	inactive
3	FucTA	DRSC10733	5	inactive
4	Rcd4	DRSC02597		inactive
5	Anp	DRSC14112	17	inactive
6	CG33459	DRSC05615	4	inactive
7	Obp28a	DRSC03394	7	inactive
8	Obp28a	DRSC25374	5	inactive
9	CG9682	DRSC16536	7	inactive
10	CG9682	DRSC25635	9	inactive
11	CG8861	DRSC12731	6	inactive
12	CG8861	DRSC16449	7	inactive
13	CG13563	DRSC22153	11	inactive
14	FoxL1	DRSC08717	2	inactive
15	FoxL1	DRSC25265	6	inactive
16	CG9265	DRSC03178	6	inactive
17	CG9265	DRSC03179	5	inactive
18	CG31279	DRSC13158	5	inactive
19	CG9014	DRSC01979	2	inactive
20	mRpS2	DRSC00550	6	inactive
21	Idh3g	DRSC15699	2	inactive
22	Idh3g	DRSC26628	4	inactive
23	qkr54B	DRSC07670	3	inactive
24	qkr54B	DRSC24863	10	inactive
25	Ptp61F	DRSC08683	7	inactive
26	Ptp61F	DRSC28719	5	inactive
27	CG2063	DRSC06811	10	inactive
28	BaraC	DRSC03885	5	inactive
29	Agxt	DRSC18718		inactive
30	Agxt	DRSC26115	2	inactive
31	CG34404	DRSC15335	11	inactive
32	CG34404	DRSC15978	3	inactive
33	CG34404	DRSC25463	8	inactive
34	GC	DRSC08396	7	inactive
35	GC	DRSC27222	5	inactive
36	CG14286	DRSC14767	5	inactive
37	CG14286	DRSC29125	7	inactive
38	CG18507	DRSC01914	3	inactive
39	Rrp5	DRSC15862	9	inactive
40	Rrp5	DRSC29039	10	inactive
41	CG4957	DRSC02793	4	inactive
42	CG4957	DRSC29454	8	inactive

Continued (3 carried over from the part before).
no.	gene	amplicon	mitotic cells, replicate 1	activity call
40	Rrp5	DRSC29039	10	inactive
41	CG4957	DRSC02793	4	inactive
42	CG4957	DRSC29454	8	inactive
43	CG14635	DRSC17945	10	inactive
44	CG14635	DRSC29724	6	inactive
45	Pus7	DRSC10703	4	inactive
46	Pus7	DRSC27484	6	inactive
47	CG14180 (retired record)	DRSC10179	3	inactive
48	CG14180 (retired record)	DRSC25107	8	inactive
49	uno	DRSC07244	5	inactive
50	uno	DRSC28407	5	inactive
51	CG13284	DRSC02256	5	inactive
52	CG5023	DRSC15697	10	inactive
53	Art4	DRSC15779	4	inactive
54	CG34199	DRSC05867	8	inactive
55	CG34199	DRSC28143	3	inactive
56	PK1-R	DRSC16577	4	inactive
57	CG3961	DRSC10390	8	inactive
58	CG3961	DRSC10391	8	inactive
59	CG9815	DRSC04567	2	inactive
60	CG9815	DRSC25175	6	inactive
61	CG42820 + CG42819	DRSC02264	8	inactive
62	CG42820 + CG42819	DRSC02265		inactive
63	loaf	DRSC09130	9	inactive
64	beta-PheRS	DRSC15859	6	inactive
65	beta-PheRS	DRSC26218	3	inactive
66	CG4914	DRSC10458	2	inactive
67	CG17490	DRSC03797	11	inactive
68	CG17490	DRSC26780	4	inactive
69	CG32820 + CG17450 + CG32819	DRSC21803	10	inactive
70	CG32820 + CG17450 + CG32819	DRSC22812	9	inactive
71	CG32820 + CG17450 + CG32819	DRSC27791	1	inactive
72	CCT2	DRSC18415	163	inactive
73	CCT2	DRSC27831	2	inactive
74	CG6984	DRSC07013	9	inactive
75	Slu7	DRSC14729	3	inactive
76	Slu7	DRSC23582	2	inactive
